Reference: the supplement of paper PMC12823440, “Inhibitors supercharge kinase turnover through native proteolytic circuits” (Nature, 2025)
Counter-ions that a name gives are not always drawn. This is one part of the list. The calls rarely recur for the same compound in another form.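 Kinases, fused to nanoluciferase, were expressed in K562 cells; luminescence was measured every 4 h from 2 to 18 h as percent of control (DMSO = 100%, positive control = 0%). A time point is decreased if signal falls significantly (2 sigma). Hits were called by the authors by a rule that is not shown; the count of time points alone does not decide it.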

Sequences of proteins named here, by UniProt entry; tags and fusion partners are left off. A change or cut given only in a name is not applied to a line headed by its entry.
UniProt Q9UBF8: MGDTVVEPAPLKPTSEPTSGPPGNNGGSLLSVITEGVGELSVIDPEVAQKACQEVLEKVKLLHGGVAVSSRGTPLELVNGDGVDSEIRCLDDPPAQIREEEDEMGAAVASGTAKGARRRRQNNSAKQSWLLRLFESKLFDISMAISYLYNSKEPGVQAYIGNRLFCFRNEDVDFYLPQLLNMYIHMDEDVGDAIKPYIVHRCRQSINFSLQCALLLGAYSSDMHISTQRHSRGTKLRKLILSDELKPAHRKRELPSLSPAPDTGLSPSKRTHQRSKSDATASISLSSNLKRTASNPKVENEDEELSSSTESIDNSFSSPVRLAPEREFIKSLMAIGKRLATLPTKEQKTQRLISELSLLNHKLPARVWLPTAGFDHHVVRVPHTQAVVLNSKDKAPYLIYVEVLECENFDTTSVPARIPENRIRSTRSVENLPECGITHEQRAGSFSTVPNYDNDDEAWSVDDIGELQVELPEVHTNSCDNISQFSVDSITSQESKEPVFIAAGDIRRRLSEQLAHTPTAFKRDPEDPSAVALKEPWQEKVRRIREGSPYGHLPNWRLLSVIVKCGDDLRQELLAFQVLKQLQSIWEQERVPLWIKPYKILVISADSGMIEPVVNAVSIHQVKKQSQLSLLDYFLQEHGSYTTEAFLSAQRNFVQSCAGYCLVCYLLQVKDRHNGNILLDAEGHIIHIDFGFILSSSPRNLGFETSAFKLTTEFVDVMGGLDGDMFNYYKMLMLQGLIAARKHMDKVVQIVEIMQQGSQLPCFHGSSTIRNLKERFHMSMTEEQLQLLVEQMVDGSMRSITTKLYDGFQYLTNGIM

molecular target: PIK4CB (UniProt Q9UBF8); assay: kinase-Nluc reporter destabilization hit call (1 = scored as downregulated) (binary); higher = compound decreases kinase abundance; details: K562; 2-18 h

kinase-Nluc reporter destabilization hit call, inactive:
O=C(CSC1=NCCN1)NC1CCCCCC1 [ICCB-19 (hydrochloride)] (2.5 µM) 0, CCCS(=O)(=O)Nc1ccc(F)c(C(=O)c2c[nH]c3ncc(-c4ccc(Cl)cc4)cc23)c1F [Vemurafenib] (10 µM) 0, Cc1ccc(OCCSc2ncccn2)c(Br)c1 [ZLN024 (hydrochloride)] (10 µM) 0, Nc1ncnc2c1c(-c1ccc(Oc3ccccc3)cc1)nn2C1CCCC1 (2.5 µM) 0, COc1ncc(Cl)cc1S(=O)(=O)Nc1ccc(F)c(C#Cc2cnc(N)nc2)c1F (2.5 µM) 0, Cc1ccc(CNc2ncnc3ccc(-c4ccc(CO)o4)cc23)o1 (10 µM) 0, NC(=O)c1nnc(N[C@@H]2CCCC[C@@H]2N)nc1Nc1cccc2cc[nH]c12 (10 µM) 0, CNc1nc(Nc2ccc(C(=O)N3CCOCC3)cc2OC)nc2[nH]cc(Cl)c12 (2.5 µM) 0, CCNc1nc(Nc2cc(F)c(C(=O)N3CCOCC3)cc2OC)ncc1C(F)(F)F [GNE-7915 (tosylate)] (10 µM) 0, CCN1CCN(Cc2ccc(Nc3ncc(F)c(-c4cc(F)c5nc(C)n(C(C)C)c5c4)n3)nc2)CC1 [Abemaciclib] (2 µM) 0, COCCNc1nc2ccc(C#CC3(O)CCCCC3)cc2n1-c1ccnc(N)n1 (10 µM) 0, OCCn1cc(-c2ccc3c(c2)CC/C3=N\O)c(-c2ccncc2)n1 (10 µM) 0
